The other results are listed elsewhere or left out.

The assay addresses T1, OsSMF1 (Oryza sativa, UniProt Q6ZLB0 1-436).
T1 sequence: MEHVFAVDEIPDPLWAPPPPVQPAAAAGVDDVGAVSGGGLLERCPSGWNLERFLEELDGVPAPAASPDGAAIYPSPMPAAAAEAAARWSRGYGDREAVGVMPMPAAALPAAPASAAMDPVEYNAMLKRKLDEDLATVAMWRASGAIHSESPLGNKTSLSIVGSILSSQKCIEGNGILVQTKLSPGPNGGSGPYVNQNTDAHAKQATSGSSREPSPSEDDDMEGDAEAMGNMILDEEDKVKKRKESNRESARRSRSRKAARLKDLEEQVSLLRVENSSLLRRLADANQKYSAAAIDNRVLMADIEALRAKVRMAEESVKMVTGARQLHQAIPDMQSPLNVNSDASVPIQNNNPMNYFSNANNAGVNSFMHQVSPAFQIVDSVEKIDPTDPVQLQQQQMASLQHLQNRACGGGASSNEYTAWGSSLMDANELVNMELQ
Briefly: protein-binding microarray (RPBM); PBS, 2% BSA, 51.3 ng/ul salmon testes DNA, 50 uM zinc acetate, 200 nM TF, 25 C, 1 h; high values mean tight binding. As to conditions: protein: recombinant; tags: N-terminal polyhistidine and DsRed monomer fusion (pET32a); chain copies: 2; label: CyDye5-dUTP incorporated in the synthesized complementary strand; 3' TTTTT single-stranded linker to array surface; dsDNA, one strand shown. The essentials: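 The binding signal is fluorescence intensity per array feature (arbitrary units). Readings came from an Axon 4000B scanner after a washed, 2% BSA-blocked, double-stranded custom Agilent array had been incubated for 1 h at 25 °C with 200 nM protein and 50 µM zinc acetate. The protein was a Ni–NTA-purified transcription factor fused N-terminally to polyhistidine and DsRed, expressed in E. coli BL21-CodonPlus.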
Regarding “TCCACCTTTTCATCAATATAGTCATGCATTAATACAGTCACGGAGTCACCTAGTGCAG”, the binding signal is 4500 fluorescence intensity (a.u.).

As to “ATACCAGTATTATTTTACCACGCCACTTTGTCATGGCAACCGGAGTCACCTAGTGCAG”, the binding signal is 3210 fluorescence intensity (a.u.).

On to “AACGGTTGTGACTACCCTCAGTCCGTCGTCTAAGTCAAATCGGAGTCACCTAGTGCAG”, for which the binding signal is 3180 fluorescence intensity (a.u.).

In the case of “TATGTATGAATGACAACACCGCCACGTCAGCGCCACGTCACGGAGTCACCTAGTGCAG”, the binding signal is 50400 fluorescence intensity (a.u.).

With “GGCTTGAATAAAGGTGTGTTTGGTTGGGTGGATGGAGCATCGGAGTCACCTAGTGCAG”, the binding signal is 3320 fluorescence intensity (a.u.).

“GCTTCTTGGCGATGGGCTGACCAACCCGTGGTGTAGCCAGCGGAGTCACCTAGTGCAG”: the binding signal was 3160 fluorescence intensity (a.u.).

On to “GTATCGCGGTATGCACGTGCGAGACCGCCCTCGGTATCGCCGGAGTCACCTAGTGCAG”, for which the binding signal is 37000 fluorescence intensity (a.u.).

As for “TTATGTTCCTCGAAGAAGAGATTAAGAGTGTGCGTGGAATCGGAGTCACCTAGTGCAG”, the binding signal was 23500 fluorescence intensity (a.u.).

“AAGGGGTTACTAAATTTAGTCGGCATGACACACATGTATACGGAGTCACCTAGTGCAG”: the binding signal was 3590 fluorescence intensity (a.u.).

With “TTCGCATCATCGCATCACACACCTCCTCCTCCTCCTCCTCCGGAGTCACCTAGTGCAG”, the binding signal was 3470 fluorescence intensity (a.u.).

In the case of “TCGCGAATCGAGAGGAGCAAACCAATATTAAAGGAGGCAACGGAGTCACCTAGTGCAG”, the binding signal was 11300 fluorescence intensity (a.u.).

“CCTCAGCCTTGGTGCTAAGACAACTAACCTCAGCGCTACACGGAGTCACCTAGTGCAG”: the binding signal was 20800 fluorescence intensity (a.u.).

On to “CGCGGGTGGTGGGGCTTGGATCCGAGGCGGAGAGGTGGTGCGGAGTCACCTAGTGCAG”, for which the binding signal was 3860 fluorescence intensity (a.u.).

As to “GCGACCTCCGGCTCCAGCTTCCCTGACTGCATCAGCTCGACGGAGTCACCTAGTGCAG”, the binding signal is 3440 fluorescence intensity (a.u.).

As for “CGCATTATCCCACCACAAAGGTAAGTAGCCCACGTGGCACCGGAGTCACCTAGTGCAG”, the binding signal is 17100 fluorescence intensity (a.u.).

Consider “ACCGTAAAATTCCACATCACCGTGAGGAAATCGTTAGGGCCGGAGTCACCTAGTGCAG”, for which the binding signal was 7070 fluorescence intensity (a.u.).

For “ACCAGAGGAGTACGCGTGGCGGCTGCGCGTGTTCGCCGCCCGGAGTCACCTAGTGCAG”, the binding signal was 3240 fluorescence intensity (a.u.).

Turning to “ATTATGTTGATGATGACAATGCATCAGATAATGGCCCTATCGGAGTCACCTAGTGCAG”, the binding signal was 7820 fluorescence intensity (a.u.).

For “AAAGACAAATCTGTTGCTGGGGTGTTGTCATTGGTCAGGTCGGAGTCACCTAGTGCAG”, the binding signal is 4270 fluorescence intensity (a.u.).

As to “ACTGCCGCACCACGTCGCACAGCGCCGCCACATCTTTCTCCGGAGTCACCTAGTGCAG”, the binding signal was 4230 fluorescence intensity (a.u.).

Regarding “TCAGCAGTAAAGGACAGAAGGCGAAAAGATTTGAGATCTTCGGAGTCACCTAGTGCAG”, the binding signal is 65500 fluorescence intensity (a.u.).

On to “CCTCCTCGGGCACTCCTCCTACCACCGTCACCACCTCGCACGGAGTCACCTAGTGCAG”, for which the binding signal is 4470 fluorescence intensity (a.u.).

Turning to “TGACTCAAAGTTGGATGATGTCACTTCGCTCCATCTGCAGCGGAGTCACCTAGTGCAG”, the binding signal was 8560 fluorescence intensity (a.u.).

In the case of “GGCGCCGCCCTCGGCCCACCGCGTCGGCGTCGCCTCCGCCCGGAGTCACCTAGTGCAG”, the binding signal was 14600 fluorescence intensity (a.u.).

Turning to “GCGGGGTTGGAGGAGGAGGAGGTGGTGGTGGTGGTGGTGGCGGAGTCACCTAGTGCAG”, the binding signal was 4860 fluorescence intensity (a.u.).

Turning to “ACATCTAGTGAAACATTGCAACATCTCTTTAATATATAGTCGGAGTCACCTAGTGCAG”, the binding signal was 3490 fluorescence intensity (a.u.).

As for “TCGTGTCCACCATTTTGATCCAGGCTATACATATTGTTTTCGGAGTCACCTAGTGCAG”, the binding signal was 3290 fluorescence intensity (a.u.).

For “TGGATGTTTCTAGGCGAGAAGCCACCATCATCCTACTAAGCGGAGTCACCTAGTGCAG”, the binding signal is 3570 fluorescence intensity (a.u.).

With “CACACGCCAACCCGGCCCCACACGTCAGCCACTCCCACTGCGGAGTCACCTAGTGCAG”, the binding signal is 7300 fluorescence intensity (a.u.).

In the case of “AGCTGATCCGCGTCACGTGGTCCTAGCCGTCGCCGTCGCCCGGAGTCACCTAGTGCAG”, the binding signal was 11900 fluorescence intensity (a.u.).

For “GCTAACGTAAAACGAAGGATGGTACTTATTACAATTTGCGCGGAGTCACCTAGTGCAG”, the binding signal is 3400 fluorescence intensity (a.u.).

Turning to “CTGTATACATCGCCCGTGTCTTGTGTGTTTCCTGTCTCGCCGGAGTCACCTAGTGCAG”, the binding signal was 3300 fluorescence intensity (a.u.).

With “TTAATTAGACTGACATGTGGGGTCCGCGTGGGTCCCACCACGGAGTCACCTAGTGCAG”, the binding signal is 4150 fluorescence intensity (a.u.).

Regarding “GGTCTTGGTAGCCACCGTGTACGGCCTCTGCGGCATGCAGCGGAGTCACCTAGTGCAG”, the binding signal is 3770 fluorescence intensity (a.u.).

Take “TCCGCCCTTCGCCTCCTCCACCGAGTCAGATCTCGAGCGCCGGAGTCACCTAGTGCAG”: the binding signal is 3390 fluorescence intensity (a.u.).

For “GGAGGAGGTGGAGTGCGTCGCTGCGGTTAGGGTTTATGGCCGGAGTCACCTAGTGCAG”, the binding signal was 8730 fluorescence intensity (a.u.).

As for “ACAACTTAAAATATTAAAATATTATGAGATGGAGAGTGTACGGAGTCACCTAGTGCAG”, the binding signal is 3260 fluorescence intensity (a.u.).

On to “ACACAGTCACACTGTGCGAGCCTGTGTGGGACTGTGGGTGCGGAGTCACCTAGTGCAG”, for which the binding signal was 3390 fluorescence intensity (a.u.).

On to “CGGACTTGCCGGAGCTGACCTGGACGACCGACCTCGACGACGGAGTCACCTAGTGCAG”, for which the binding signal is 5630 fluorescence intensity (a.u.).

With “TCCCATCGATGATCCTTCGTTGATTCGCGTCAACCTCTCGCGGAGTCACCTAGTGCAG”, the binding signal is 3220 fluorescence intensity (a.u.).

For “TTCTCCCTCTACTATTGCTGACGCCACCAACGCCCATGTGCGGAGTCACCTAGTGCAG”, the binding signal was 13500 fluorescence intensity (a.u.).

“TTTCGCCTCGTCGATTCGTCGAACACCTCGCGAGCTTCCTCGGAGTCACCTAGTGCAG”: the binding signal is 3380 fluorescence intensity (a.u.).

The values above are taken from paper PMC7819943, “Rice protein-binding microarrays: a tool to detect cis-acting elements near promoter regions in rice”.
